Data source: PubChem BioAssay AID504774 (Drosophila RNAi Screening Center, 2011)
Assay: 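Knock-downs that shift viability of MMS-exposed cells relative to untreated ones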 (primary screen). Cells: Drosophila Kc167 cells. Reagent: long dsRNA against Drosophila genes, about 0.25 µg dsRNA per well. Duration: about 6 days: 3 days knock-down, then 3 days with or without MMS. Treatment: methyl methanesulphonate 0.004% (w/v) for 3 days after knock-down. Measured: 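ATP-dependent luminescence as a measure of live cells in MMS-exposed wells, quantile normalised within each plate, with replicate values also given as a mean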. Direction: mean viability with MMS and viability with MMS: higher = more surviving cells after MMS.
The screen tested about 23,000 reagents; this is a random part of those with a known target gene and a result. 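Values are quantile-normalised luminescence on an arbitrary scale; higher means more cells surviving MMS.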 Reagents against one gene are numbered here.

gene knocked down | dsRNA no. | mean viability with MMS | viability with MMS, replicate 1 | viability with MMS, replicate 2
KaiR1D | 1 | 3.49e6 | 4.00e6 | 3.94e6
uncNacbeta | 1 | 3.64e6 | 4.12e6 | 4.17e6
CG3107 | 1 | 3.52e6 | 4.15e6 | 3.68e6
atl | 1 | 3.43e6 | 3.89e6 | 3.89e6
Ufc1 | 1 | 3.59e6 | 4.09e6 | 4.07e6
ORMDL | 1 | 3.73e6 | 4.20e6 | 4.14e6
thoc6 | 1 | 3.63e6 | 3.98e6 | 4.25e6
CG2747 | 1 | 3.43e6 | 3.95e6 | 3.86e6
Agpat4 | 1 | 3.63e6 | 4.07e6 | 4.15e6
CG12883 | 1 | 3.57e6 | 4.01e6 | 4.08e6
babos | 1 | 3.44e6 | 3.87e6 | 3.95e6
babos | 2 | 3.59e6 | 4.20e6 | 4.14e6
CG16756 | 1 | 3.52e6 | 3.88e6 | 4.13e6
CG32591 | 1 | 3.41e6 | 3.91e6 | 3.88e6
CG46301 | 1 | 3.69e6 | 4.02e6 | 3.99e6
HSPBAP1 | 1 | 3.66e6 | 4.12e6 | 4.17e6
fand | 1 | 3.12e6 | 3.60e6 | 3.68e6
lncRNA:Hsromega | 1 | 3.18e6 | 3.83e6 | 3.75e6
CG8369 | 1 | 3.51e6 | 3.97e6 | 4.01e6
CG14147 | 1 | 3.65e6 | 4.10e6 | 4.12e6
Ktch | 1 | 3.61e6 | 4.03e6 | 4.14e6
Rm62 | 1 | 3.23e6 | 3.65e6 | 3.76e6
CG2681 | 1 | 3.58e6 | 4.05e6 | 4.07e6
Ugt303A1 | 1 | 3.49e6 | 4.02e6 | 3.92e6
CG34300 | 1 | 3.40e6 | 3.80e6 | 3.90e6
EDTP | 1 | 3.67e6 | 4.03e6 | 4.25e6
CG9522 | 1 | 3.52e6 | 3.99e6 | 3.99e6
Pgant1 | 1 | 3.43e6 | 3.97e6 | 3.86e6
CG5646 | 1 | 3.54e6 | 4.02e6 | 4.02e6
betaTry | 1 | 3.83e6 | 3.94e6 | 4.04e6
betaTry | 2 | 3.39e6 | 3.84e6 | 3.95e6
RfC3 | 1 | 3.50e6 | 3.92e6 | 4.03e6
Rnf146 | 1 | 3.77e6 | 4.35e6 | 4.06e6
CG10208 | 1 | 3.47e6 | 4.00e6 | 3.85e6
CG13310 | 1 | 3.46e6 | 3.95e6 | 3.91e6
Hem | 1 | 3.53e6 | 4.02e6 | 3.96e6
numb | 1 | 3.72e6 | 4.25e6 | 4.24e6
Cpr65Eb | 1 | 3.44e6 | 3.89e6 | 3.90e6
CG8547 | 1 | 3.56e6 | 3.91e6 | 4.19e6
Eo | 1 | 3.49e6 | 3.95e6 | 3.96e6
Uba1 | 1 | 3.55e6 | 4.13e6 | 3.94e6
CG10934 | 1 | 3.59e6 | 3.96e6 | 4.18e6
CG10182 | 1 | 3.38e6 | 3.78e6 | 3.79e6
Kpc2 | 1 | 3.54e6 | 3.96e6 | 4.06e6
amon | 1 | 3.45e6 | 3.89e6 | 3.92e6
amon | 2 | 3.75e6 | 4.21e6 | 3.98e6
MED24 | 1 | 3.29e6 | 3.66e6 | 3.71e6
CG13895 | 1 | 3.46e6 | 3.92e6 | 3.94e6
BomT2 | 1 | 3.91e6 | 4.19e6 | 4.45e6
rudhira | 1 | 2.79e6 | 3.26e6 | 3.04e6
rudhira | 2 | 3.67e6 | 4.17e6 | 4.07e6
rudhira | 3 | 3.71e6 | 4.26e6 | 4.16e6
CG33490 | 1 | 3.58e6 | 4.13e6 | 3.99e6
CG30286 | 1 | 3.58e6 | 4.11e6 | 4.03e6
tHMG2 | 1 | 3.70e6 | 4.40e6 | 3.99e6
CG13685 | 1 | 3.49e6 | 3.96e6 | 3.97e6
wus | 1 | 3.88e6 | 4.48e6 | 4.33e6
fzr2 | 1 | 3.40e6 | 4.12e6 | 3.89e6
CG14309 | 1 | 3.47e6 | 3.85e6 | 4.03e6
Csas | 1 | 3.37e6 | 3.85e6 | 3.92e6
ND-B17 | 1 | 3.60e6 | 4.08e6 | 4.08e6
nes | 1 | 3.52e6 | 4.14e6 | 3.84e6
fs(1)Ya | 1 | 3.40e6 | 3.84e6 | 3.90e6
fs(1)Ya | 2 | 3.61e6 | 4.08e6 | 4.11e6
CG6125 | 1 | 3.57e6 | 4.09e6 | 4.03e6
CG7381 | 1 | 3.69e6 | 4.19e6 | 4.19e6
Boot | 1 | 3.69e6 | 4.11e6 | 4.15e6
CG5478 | 1 | 3.56e6 | 3.94e6 | 4.14e6

9 neighbouring entries from above, for reference:
gene knocked down | dsRNA no. | mean viability with MMS | viability with MMS, replicate 1 | viability with MMS, replicate 2
numb | 1 | 3.72e6 | 4.25e6 | 4.24e6
Cpr65Eb | 1 | 3.44e6 | 3.89e6 | 3.90e6
CG8547 | 1 | 3.56e6 | 3.91e6 | 4.19e6
Eo | 1 | 3.49e6 | 3.95e6 | 3.96e6
Uba1 | 1 | 3.55e6 | 4.13e6 | 3.94e6
CG10934 | 1 | 3.59e6 | 3.96e6 | 4.18e6
CG10182 | 1 | 3.38e6 | 3.78e6 | 3.79e6
Kpc2 | 1 | 3.54e6 | 3.96e6 | 4.06e6
amon | 1 | 3.45e6 | 3.89e6 | 3.92e6
